Reference: paper PMC11911448
No constants are given. Whether binding was seen depends on the method and setting. In cells and extracts the contact can be indirect. Some entries that bind do so weakly or less than the wild type.

The chains behind the UniProt entries cited, without tags or fusion partners.
UniProt Q6A4J8: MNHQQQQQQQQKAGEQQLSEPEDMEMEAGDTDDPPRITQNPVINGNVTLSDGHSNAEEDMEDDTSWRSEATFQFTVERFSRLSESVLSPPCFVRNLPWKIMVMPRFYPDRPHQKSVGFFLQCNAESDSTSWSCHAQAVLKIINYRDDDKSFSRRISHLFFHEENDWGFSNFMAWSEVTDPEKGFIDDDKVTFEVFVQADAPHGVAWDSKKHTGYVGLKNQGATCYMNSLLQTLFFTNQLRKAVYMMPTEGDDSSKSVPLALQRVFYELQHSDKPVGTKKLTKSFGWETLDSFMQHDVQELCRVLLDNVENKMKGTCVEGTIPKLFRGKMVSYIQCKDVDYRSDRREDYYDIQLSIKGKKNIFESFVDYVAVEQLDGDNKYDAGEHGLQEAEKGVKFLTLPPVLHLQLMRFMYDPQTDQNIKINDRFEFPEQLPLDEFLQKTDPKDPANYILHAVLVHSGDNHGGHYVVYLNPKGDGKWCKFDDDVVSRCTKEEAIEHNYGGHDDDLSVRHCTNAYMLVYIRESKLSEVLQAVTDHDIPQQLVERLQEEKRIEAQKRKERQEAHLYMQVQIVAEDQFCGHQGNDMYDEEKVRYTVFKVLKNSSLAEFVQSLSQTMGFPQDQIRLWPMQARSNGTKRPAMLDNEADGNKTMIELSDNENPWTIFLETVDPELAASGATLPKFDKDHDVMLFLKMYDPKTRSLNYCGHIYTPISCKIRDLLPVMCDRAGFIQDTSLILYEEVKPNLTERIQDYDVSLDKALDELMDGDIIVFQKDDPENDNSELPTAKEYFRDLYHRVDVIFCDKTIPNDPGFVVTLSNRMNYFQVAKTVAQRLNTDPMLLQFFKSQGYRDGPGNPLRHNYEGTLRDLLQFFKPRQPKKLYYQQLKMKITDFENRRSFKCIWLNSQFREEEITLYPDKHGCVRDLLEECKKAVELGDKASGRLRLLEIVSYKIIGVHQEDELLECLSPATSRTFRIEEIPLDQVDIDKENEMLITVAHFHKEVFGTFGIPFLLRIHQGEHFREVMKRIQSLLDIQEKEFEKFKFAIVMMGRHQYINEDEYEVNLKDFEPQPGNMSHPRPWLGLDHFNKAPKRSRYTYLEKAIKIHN
UniProt Q04207: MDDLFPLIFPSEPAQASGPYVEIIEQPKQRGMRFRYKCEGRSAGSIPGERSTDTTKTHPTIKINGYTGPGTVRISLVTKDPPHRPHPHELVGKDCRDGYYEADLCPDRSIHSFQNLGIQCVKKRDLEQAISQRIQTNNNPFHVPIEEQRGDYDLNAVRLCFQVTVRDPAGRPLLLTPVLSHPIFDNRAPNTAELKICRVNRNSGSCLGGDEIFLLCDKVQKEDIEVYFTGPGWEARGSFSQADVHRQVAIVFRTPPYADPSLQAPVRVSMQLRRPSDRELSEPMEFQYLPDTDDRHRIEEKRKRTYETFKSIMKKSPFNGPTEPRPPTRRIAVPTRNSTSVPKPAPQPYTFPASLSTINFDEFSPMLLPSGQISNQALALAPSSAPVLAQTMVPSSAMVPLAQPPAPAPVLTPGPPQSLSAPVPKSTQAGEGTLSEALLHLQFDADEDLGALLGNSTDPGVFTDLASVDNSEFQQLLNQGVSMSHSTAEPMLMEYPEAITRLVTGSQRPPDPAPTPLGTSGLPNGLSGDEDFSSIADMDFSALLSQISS

Biological target: ubiquitin-specific protease 7 (endogenous in LLC and MC38 cells) (mouse (endogenous in LLC and MC38)) (UniProt Q6A4J8)
Experiment: co-IP; CoIP of USP7 and p65 in LLC cells with S100a1 shRNAs or scramble control and in MC38 cells with the S100a1 ORF or empty vector

NF-κB transcription factor p65 (endogenous in LLC and MC38 cells) (from UniProt Q04207 1-549)
binding: binds
